Assay results reported in article PMC8763653.
Results are given in words; binding and its absence hold for the method and conditions named. Binding seen in cells or lysates may run through a third protein. Some results given as binding are weak or reduced against the parent protein; the word gives no strength. Values belong to the binder of their own block, whether it stands above or below them.

Chains of the proteins cited; added tags and fusions are not shown. Lines headed by an entry give the natural chain unless they say otherwise; changes in a name come on top. A line that says so, or that is headed by a name, gives the form on record, which may keep a tag or linker. Residues count along the entry.
6×Myc‐tagged human CHI3L1 (chitinase 3 like1), full length (P36222, residues 22-383): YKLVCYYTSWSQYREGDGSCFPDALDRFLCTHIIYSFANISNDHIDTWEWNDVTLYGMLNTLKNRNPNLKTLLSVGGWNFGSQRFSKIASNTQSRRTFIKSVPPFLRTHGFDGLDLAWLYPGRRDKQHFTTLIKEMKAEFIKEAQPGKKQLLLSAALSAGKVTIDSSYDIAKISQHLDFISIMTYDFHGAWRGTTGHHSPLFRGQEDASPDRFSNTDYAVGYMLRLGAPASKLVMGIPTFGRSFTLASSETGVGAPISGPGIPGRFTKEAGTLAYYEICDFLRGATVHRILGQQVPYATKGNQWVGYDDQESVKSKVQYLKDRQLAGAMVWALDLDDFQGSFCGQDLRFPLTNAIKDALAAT
6×Myc‐tagged human CHI3L1 Δ278‐294 (P36222, form named): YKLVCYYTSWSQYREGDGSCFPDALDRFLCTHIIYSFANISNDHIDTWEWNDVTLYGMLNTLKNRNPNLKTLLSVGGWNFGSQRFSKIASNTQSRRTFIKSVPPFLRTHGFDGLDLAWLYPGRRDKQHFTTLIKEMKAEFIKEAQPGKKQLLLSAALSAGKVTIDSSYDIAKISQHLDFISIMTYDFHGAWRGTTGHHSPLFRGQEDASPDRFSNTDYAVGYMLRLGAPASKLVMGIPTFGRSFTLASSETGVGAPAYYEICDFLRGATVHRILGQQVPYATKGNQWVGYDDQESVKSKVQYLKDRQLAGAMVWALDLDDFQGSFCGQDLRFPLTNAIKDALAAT

Key:
Test in all cases: co-IP; reversed: A549 cells transfected with FL or Δ278‐294 CHI3L1‐6×Myc, with or without 5 μM K284 for 24 h; immunoprecipitation with anti‐CHI3L1 IgG, blot with anti‐IL‐13Rα1 IgG or anti‐IL‐13Rα2 IgG
[1] = molecular target: 6×Myc‐tagged human CHI3L1 (chitinase 3 like1), full length (human) (UniProt P36222)
[2] = molecular target: 6×Myc‐tagged human CHI3L1 (chitinase 3 like1), full length (human), P36222; conditions: remark: other sources report otherwise
[3] = molecular target: 6×Myc‐tagged human CHI3L1 Δ278‐294 (human) (UniProt P36222)

binding [1]: binds
B1: IL‐13Rα1 (receptor, UniProt P78552 22-427)
chain: GGGGAAPTETQPPVTNLSVSVENLCTVIWTWNPPEGASSNCSLWYFSHFGDKQDKKIAPETRRSIEVPLNERICLQVGSQCSTNESEKPSILVEKCISPPEGDPESAVTELQCIWHNLSYMKCSWLPGRNTSPDTNYTLYYWHRSLEKIHQCENIFREGQYFGCSFDLTKVKDSSFEQHSVQIMVKDNAGKIKPSFNIVPLTSRVKPDPPHIKNLSFHNDDLYVQWENPQNFISRCLFYEVEVNNSQTETHNVFYVQEAKCENPEFERNVENTSCFMVPGVLPDTLNTVRIRVKTNKLCYEDDKLWSNWSQEMSIGKKRNSTLYITMLLIVPVIVAGAIIVLLLYLKRLKIIIFPPIPDPGKIFKEMFGDQNDDTLHWKKYDIYEKQTKEETDSVVLIENLKKASQ

binding [2]: binds
B2: interleukin‐13 receptor subunit alpha‐2 (IL‐13Rα2), Q14627 27-380 (receptor)
chain: DTEIKVNPPQDFEIVDPGYLGYLYLQWQPPLSLDHFKECTVEYELKYRNIGSETWKTIITKNLHYKDGFDLNKGIEAKIHTLLPWQCTNGSEVQSSWAETTYWISPQGIPETKVQDMDCVYYNWQYLLCSWKPGIGVLLDTNYNLFYWYEGLDHALQCVDYIKADGQNIGCRFPYLEASDYKDFYICVNGSSENKPIRSSYFTFQLQNIVKPLPPVYLTFTRESSCEIKLKWSIPLGPIPARCFDYEIEIREDDTTLVTATVENETYTLKTTNETRQLCFVVRSKVNIYCSDDGIWSEWSDKQCWEGEDLSKKTLLRFWLPFGFILILVIFVTGLLLRKPNTYPKMIPEFFCDT

binding [3]: binds
B3: interleukin‐13 receptor subunit alpha‐2 (IL‐13Rα2) (receptor, UniProt Q14627 27-380)
chain: B2 chain
